# Source: PubChem BioAssay AID504648 (National Center for Advancing Translational Sciences (NCATS), 2011)
# The campaign covered roughly 390,000 compounds. About 610 (0.16%) were called active. Inconclusive results, whose numbers are uncertain, are shown with a selection of clear calls. Calls follow the shape of the dose curve; as a rule, active = well fitted inhibition curve with a large enough effect; inconclusive = small, poorly fitted or top-dose-only effect, or effect the other way, or another doubt; inactive = no such curve, though single readings can be large or run the other way. Potencies of inconclusive entries are doubtful fits and often do not repeat.
# Experiment: Nrf2 qHTS screen for inhibitors: counterscreen for cytotoxicity
# Conditions: A549 ARE-Fluc cells, CellTiter-Fluor viability, 18-24 h; activity change, negative = cytotoxicity: at 46 µM (top of the series)
# Procedure, shortened: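 A549 ARE_Fluc cells in 5% FBS OPTI-MEM were exposed to compounds in concentration-response for 18-24 h at 37 deg C. Viability was read by CellTiter-Fluor fluorescence (Ex 405/Em 525) after 30 min, before the luciferase read.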
# % is scaled to controls: 0 for no effect and ±100 for the full control effect; potency is read from the fitted curve at half-maximal effect.
SMILES,Potency,"activity change, negative = cytotoxicity"
Cc1cc(C)c[n+](C2=C([O-])c3ccccc3C(=O)/C2=N\S(=O)(=O)c2cccs2)c1,"inconclusive: 16.4 µM [falling, single point]",
c1ccc(Nc2nc(N3CCCC3)nc(N3CCCC3)n2)cc1,"inconclusive: 20.6 µM [falling, single point]",
COc1ccc(CNc2ncc(-c3ccccc3)n2C)cc1,,inactive: -5.51%
CCC1=NN(C(=O)Cc2ccc(OC)cc2)C(O)(C(F)(F)F)C1 (stereo not given),"inconclusive: 32.6 µM [activator, partial curve, poor fit]",
CC(C)COC(=O)N1C[C@H](O)C[C@H]1C(=O)Nc1ccc(Cl)cc1,,inactive: -4.97%
CCN1/C(=C/c2ccc3cc(C)ccc3[n+]2CC)Sc2ccccc21,"inconclusive: 29.1 µM [falling, single point]",
CCCc1nnc(NC(=O)c2cc(=O)c3cc(C)c(C)cc3o2)s1,,inactive: 0.75%
O=C1NC(=S)N/C1=C/c1ccc2c(c1)OCO2,"inconclusive: 10.3 µM [falling, partial curve, poor fit]",
CCOC(=O)c1cnc2ccc(C)cc2c1Nc1ccc(N(CC)CC)cc1,"inconclusive: 18.4 µM [falling, partial curve, poor fit]",
c1ccc2c(c1)[nH]c1c(NCC3CCCO3)ncnc12 (stereo not given),,inactive: -2.97%
COc1ccc(N2CCN(CCCNC(=O)c3cc4sccc4n3C)CC2)cc1,"inconclusive: 25.9 µM [falling, single point]",
COc1ccc2c(CNC3CCCCCC3)c(C(=O)O)n(Cc3ccccc3F)c2c1,,inactive: -8.44%
O=C(Nc1ccc(F)cc1)C1CCN(S(=O)(=O)c2ccc3c(c2)CCCN3C(=O)C2CCC2)CC1,,inactive: 1.88%
Cc1cccc(OCC(=O)NC(=S)NNC(=O)c2ccncc2)c1,"inconclusive: 4.11 µM [falling, partial curve, poor fit]",
CCOC(=O)c1cc(S(=O)(=O)NCc2cccc(Cl)c2)[nH]n1,,inactive: 8.42%
CCOc1ccc(NC(=O)N2CCc3ccccc3C2)cc1,,inactive: 6.68%
Cc1ccc(C)c(NC(=O)CSc2nnc(-c3cc4occc4n3C)n2-c2ccccc2C)c1,"inconclusive: 25.9 µM [falling, partial curve, poor fit]",
COc1cc2c(c(OC)c1OC)-c1ccc(SC)c(=O)cc1C(NC=O)CC2 (stereo not given),"inconclusive: 25.9 µM [falling, single point]",
Cc1ccc(NC(=O)CCCn2c(=O)c3cccn3c3cccnc32)cc1C,,inactive: 3.73%
O=C(NC1CCN(Cc2ccccc2)CC1)c1cccc(S(=O)(=O)Nc2ccc(SC(F)F)cc2)c1,"inconclusive: 18.4 µM [falling, single point]",
CCCCn1c(SCC(=O)Nc2ccc(OCC)cc2)nc2ccsc2c1=O,,inactive: 1.92%
Cc1cc(/C=N/n2c(COc3ccccc3C)nc3ccccc3c2=O)c(O)c([N+](=O)[O-])c1,"inconclusive: 16.4 µM [falling, partial curve, poor fit]",

SMILES,Potency,"activity change, negative = cytotoxicity"
O=c1c2cc(NC(=S)NCCCN3CCC(Cc4ccccc4)CC3)ccc2nc2n1CCCCC2,,inactive: -16.1%
COC(=O)c1cc(Cl)ccc1NC(=O)CSc1ncc(S(=O)(=O)c2ccc(Br)cc2)c(=O)[nH]1,,inactive: 8.87%
CCOc1ccc(NC(=O)c2sccc2-n2cccc2)cc1,"inconclusive: 0.259 µM [activator, full curve, poor fit]",
COc1ccc(S(=O)(=O)/N=C2\C=C(Nc3ccc(O)cc3)C(=O)c3ccccc32)cc1,"inconclusive: 23.1 µM [falling, single point]",
CC(C)CC(=O)Nc1ccccc1OCc1cc(=O)n2ccccc2n1,,inactive: -7.38%
COc1ccc(-n2cc(-c3ccc4c(c3)OCO4)n(CC(=O)Nc3cccc(C)c3C)c2=O)c(OC)c1,"inconclusive: 11.6 µM [falling, partial curve, poor fit]",
COc1cc(OC)cc(C(=O)Nc2ccc(-c3nc4cc(C(C)C)ccc4o3)cc2)c1,,inactive: -4.25%
COCCCNC(=O)C(=O)Nc1ccc2c(c1)N(S(=O)(=O)c1cccs1)CCC2,"inconclusive: 2.06 µM [falling, partial curve, poor fit]",
Nc1ccc(C(=O)NNC(=O)C2COc3ccccc3O2)cc1[N+](=O)[O-] (stereo not given),"inconclusive: 14.6 µM [falling, single point]",
CCOC(=O)c1ccc(N2C(=O)c3n[nH]c(-c4cccs4)c3C2c2ccc(CC)cc2)cc1 (stereo not given),"inconclusive: 29.1 µM [falling, single point]",
CCOc1ccccc1NC(=O)c1cccc(NC(=O)c2ccco2)c1,"inconclusive: 2.31 µM [falling, partial curve, poor fit]",
C=CC[C@@H](CC(=O)N(CCO)Cc1ccccc1)C(=O)N[C@H](COC(=O)[C@H](CC=C)CC(=O)OC(C)(C)C)Cc1c[nH]c2ccccc12,"inconclusive: 25.9 µM [falling, single point]",
CCNc1nc(NCC)n2c(SCC(=O)Nc3cccc(Cl)c3)nnc2n1,,inactive: -9.97%
NC(=O)N=Nc1c2[nH]c3ccccc3nc-2c2ccccc12,"inconclusive: 13 µM [falling, partial curve]",
Cc1ccc(NC(=O)CNc2ccc(Cl)c(Cl)c2)cc1S(=O)(=O)N(C)C,"inconclusive: 23.1 µM [falling, partial curve, poor fit]",
COc1ccc(-c2nc3ccccc3c(=O)n2NC(=O)c2cccnc2Cl)cc1OC,,inactive: 1.09%
C/C(=N\NC(=S)NCCc1ccccc1)c1ccc(Cl)cc1,"inconclusive: 16.4 µM [activator, partial curve, poor fit]",
COc1ccc(/C=c2/sc3n(c2=O)C(c2ccccc2OC)C2=C(N=3)c3ccccc3CC2)cc1O (stereo not given),"inconclusive: 29.1 µM [falling, single point]",
CC1S/C(=N/N=C/c2ccco2)N(Cc2ccc(F)cc2)C1=O (stereo not given),"inconclusive: 29.1 µM [activator, single point]",
Cc1noc(C)c1S(=O)(=O)Nc1ccc2c(c1)C(=O)N([C@H](C)CO)C[C@H](C)[C@@H](CN(C)C(=O)Nc1ccc3c(c1)OCO3)O2,"inconclusive: 0.0517 µM [activator, full curve, poor fit]",
CC1=C/C(=C\C=C(C#N)C#N)N(C)c2ccccc21,"inconclusive: 10.3 µM [falling, partial curve, poor fit]",
CCOC(=O)c1cccc(NS(=O)(=O)c2ccc3[nH]c4c(c3c2)CCCC4)c1,,inactive: -23.6%

# Reformatted: results already given.
SMILES | Potency | activity change, negative = cytotoxicity
C=CC[C@@H](CC(=O)N(CCO)Cc1ccccc1)C(=O)N[C@H](COC(=O)[C@H](CC=C)CC(=O)OC(C)(C)C)Cc1c[nH]c2ccccc12 | inconclusive: 25.9 µM [falling, single point] | 
CCNc1nc(NCC)n2c(SCC(=O)Nc3cccc(Cl)c3)nnc2n1 |  | inactive: -9.97%
NC(=O)N=Nc1c2[nH]c3ccccc3nc-2c2ccccc12 | inconclusive: 13 µM [falling, partial curve] | 
Cc1ccc(NC(=O)CNc2ccc(Cl)c(Cl)c2)cc1S(=O)(=O)N(C)C | inconclusive: 23.1 µM [falling, partial curve, poor fit] | 

# Continued:

SMILES,Potency,"activity change, negative = cytotoxicity"
Cc1cccc(C(=O)NCCc2nc3ccccc3n2Cc2ccc(Cl)cc2)c1,,inactive: -19.9%
CCOC(=O)c1ccc2nc(C)cc(Nc3ccc(OC(C)C)cc3)c2c1,"inconclusive: 29.1 µM [falling, single point]",
Cc1cc(C)c(C#N)c(SCc2ccccc2[N+](=O)[O-])n1,"inconclusive: 16.4 µM [activator, partial curve, poor fit]",
CCOC(=O)/C=C/C(=O)OCC(=O)NCc1ccccc1,"inconclusive: 14.6 µM [falling, partial curve, poor fit]",
CCSCCOC(=O)C1=C(C)NC2=C(C(=O)CCC2)C1c1coc2ccccc2c1=O (stereo not given),"inconclusive: 14.6 µM [falling, partial curve, poor fit]",
COCCCNC(=O)C1CCC(Cn2c(=O)c3sccc3n(C)c2=O)CC1 (stereo not given),,inactive: 3.85%
CCc1ccc(OCC2c3cc(OC)c(OC)cc3CCN2C(=S)NCCOC)cc1 (stereo not given),,inactive: 2.33%
COc1cc2c(cc1OC)C1(Nc3c-2c(-c2ccccc2)nn3-c2ccccc2)C(=O)Nc2ccccc21 (stereo not given),"inconclusive: 14.6 µM [falling, partial curve, poor fit]",
O=C(CCNC(=O)c1ccccc1Cl)Nc1nc(-c2ccc3ccccc3c2)cs1,"inconclusive: 29.1 µM [falling, single point]",
CC(=O)c1c(C)[nH]c(C(=O)COC(=O)CCSc2ccccc2)c1C,,inactive: -3.79%
COc1ccccc1-c1cc(C(F)(F)F)nc(S(=O)(=O)CCCC(=O)Nc2ccc(F)c(Cl)c2)n1,,inactive: 4.39%
CCC(=O)Nc1ccc2ccccc2c1,,inactive: -0.655%
CC(C)CN1CCN(Cc2ccc(CN3CCCCC3)s2)CC1CCO (stereo not given),"inconclusive: 11.6 µM [falling, partial curve]",
CCN1C(=O)S/C(=C/c2c(OCc3ccc(C(=O)O)cc3)ccc3ccccc23)C1=O,"inconclusive: 23.1 µM [falling, single point]",
CCCCn1c(NC(C)=O)c(C#N)c2nc3ccccc3nc21,"inconclusive: 25.9 µM [activator, partial curve]",
CCN1CCN(CCNC(=O)c2ccc(/C=C3/Sc4ccccc4N(Cc4cccc(Cl)c4)C3=O)cc2)CC1,"inconclusive: 18.4 µM [falling, single point]",
CC(C)C[C@H]1CN([C@@H](CC(C)C)CN2CCC[C@@H]2CN2C(=O)C(=O)NC[C@@H]2Cc2ccccc2)C(=O)C(=O)N1CCc1ccccc1,"inconclusive: 29.1 µM [falling, single point]",
Cc1n[nH]c(=S)n1/N=C/c1ccc(-c2ccccc2[N+](=O)[O-])o1,"inconclusive: 25.9 µM [falling, single point]",
COC(=O)C1=C(C(=O)OC)[C@@H]2N(C)c3ccccc3[C@@]23C[C@@H](C(=O)OC)N(C(=O)COCc2ccccc2)C3=N1,"inconclusive: 29.1 µM [falling, single point]",
CC(C)CCNC(=S)Nc1ccc([N+](=O)[O-])cc1,"inconclusive: 32.6 µM [falling, partial curve, poor fit]",
CCOC(=O)c1c(CN2CCCCC2)n(C)c2cc(Br)c(O)cc12,,inactive: -7.86%
